Laboratory results: PMC7819943, “Rice protein-binding microarrays: a tool to detect cis-acting elements near promoter regions in rice”
The other results are listed elsewhere or left out.

target: T1, OsSMF1 (Oryza sativa, UniProt Q6ZLB0 1-436); assay: protein-binding microarray (RPBM); PBS, 2% BSA, 51.3 ng/ul salmon testes DNA, 50 uM zinc acetate, 200 nM TF, 25 C, 1 h; high values mean tight binding; conditions: protein: recombinant; tags: N-terminal polyhistidine and DsRed monomer fusion (pET32a); chain copies: 2; label: CyDye5-dUTP incorporated in the synthesized complementary strand; 3' TTTTT single-stranded linker to array surface; dsDNA, one strand shown
T1 sequence: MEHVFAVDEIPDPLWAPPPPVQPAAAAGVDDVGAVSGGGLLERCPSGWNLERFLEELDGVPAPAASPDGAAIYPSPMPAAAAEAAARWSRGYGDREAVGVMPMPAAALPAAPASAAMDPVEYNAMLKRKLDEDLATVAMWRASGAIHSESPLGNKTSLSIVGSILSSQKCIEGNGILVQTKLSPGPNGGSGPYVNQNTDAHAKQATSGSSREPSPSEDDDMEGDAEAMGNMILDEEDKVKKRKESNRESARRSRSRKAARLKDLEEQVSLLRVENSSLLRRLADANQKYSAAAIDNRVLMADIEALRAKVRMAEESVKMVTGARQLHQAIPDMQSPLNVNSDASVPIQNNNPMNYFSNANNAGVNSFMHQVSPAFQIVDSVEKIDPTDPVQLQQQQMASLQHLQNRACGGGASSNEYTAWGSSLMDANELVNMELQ
Procedure, shortened: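 Transcription factors were each fused at the N-terminus to a polyhistidine tag plus DsRed and expressed in E. coli BL21-CodonPlus before Ni–NTA purification. Binding to a double-stranded custom Agilent array was carried out with 200 nM protein at 25 °C for 1 h in PBS, 2% BSA, salmon testes DNA and 50 µM zinc acetate. The binding signal is per-feature fluorescence intensity, in arbitrary units, on an Axon 4000B scanner.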

Row | Sequence | binding signal
1 | ATTTCTAGTCATGCCCGATAACCACTCCGGCACGACCACGCGGAGTCACCTAGTGCAG | 3410 fluorescence intensity (a.u.)
2 | CTCTCTCTCTCTCTGCAGCTAGGCCATATGCATCTCTCCTCGGAGTCACCTAGTGCAG | 3590 fluorescence intensity (a.u.)
3 | CCAGGTCAACATTGCCACGTGTGCGGCCACGTCAGCGAAACGGAGTCACCTAGTGCAG | 33400 fluorescence intensity (a.u.)
4 | TGGTAAAATATGGATGTGGCATAGATGCTTACGATGTCCTCGGAGTCACCTAGTGCAG | 38600 fluorescence intensity (a.u.)
5 | GCGAGATTCATTGGGTACCCGCCGGATATACCTGCGTCCGCGGAGTCACCTAGTGCAG | 3390 fluorescence intensity (a.u.)
6 | AATCACTTTTGCTTGGAAGATTAATCTACTAGAGTTAGTGCGGAGTCACCTAGTGCAG | 3920 fluorescence intensity (a.u.)
7 | ATCAAAATGGCAACAAAAGGGAGTCCAAAGTGAAAATTTTCGGAGTCACCTAGTGCAG | 36100 fluorescence intensity (a.u.)
8 | AGGCAAGATGAAATATTTTAGTTTAGTTTAGTTGATCTTTCGGAGTCACCTAGTGCAG | 28300 fluorescence intensity (a.u.)
9 | CAGTGGCTTGCCACTGGGGTCCTCGCGTGTCGCCCAGGCGCGGAGTCACCTAGTGCAG | 3180 fluorescence intensity (a.u.)
10 | TTGGGTTGGGTTAAGGCAGCCTCGGTTCCACGTACGCCGCCGGAGTCACCTAGTGCAG | 4850 fluorescence intensity (a.u.)
11 | ACATCTAAAAGTAACTTGAGTTTTCTAAGCAACACATAAGCGGAGTCACCTAGTGCAG | 24700 fluorescence intensity (a.u.)
12 | TCCGAAGTCCATGTCGCCATGACGTCACCACATGGCACGGCGGAGTCACCTAGTGCAG | 11100 fluorescence intensity (a.u.)
13 | CCAAAACGACCACGAGCACGCGCCACCAACACCGGCCGCGCGGAGTCACCTAGTGCAG | 3460 fluorescence intensity (a.u.)
14 | GCGTCATAGAAGGCAAGAGGTTCTTGCTTGTGCTTGATGACGGAGTCACCTAGTGCAG | 3780 fluorescence intensity (a.u.)
15 | ATGTATGGGGTGTGTGTGTGTGTATACTGCATAGTGATATCGGAGTCACCTAGTGCAG | 4380 fluorescence intensity (a.u.)
16 | GGTGGGCACGTGCAGTCTGCGCTGCGTCAGCTCTCGCCGCCGGAGTCACCTAGTGCAG | 10800 fluorescence intensity (a.u.)
17 | GGTCACTCTTCCACCTGCACGACATCGACCTCCACGCCTGCGGAGTCACCTAGTGCAG | 3900 fluorescence intensity (a.u.)
18 | AATCTTGTTGGATGTTGAATTTTCAGGCGGGGTGACGCAGCGGAGTCACCTAGTGCAG | 4950 fluorescence intensity (a.u.)
19 | TGAACCACGACCAGGCAGATTGTTTATGTCACATCGAAGACGGAGTCACCTAGTGCAG | 3240 fluorescence intensity (a.u.)
20 | ATCGATCGATCTCCACGGTGGCGGCTGGCTGGTCGGCGGACGGAGTCACCTAGTGCAG | 3650 fluorescence intensity (a.u.)
21 | GTGCCGGACGTGTCCACGAGCACCGCCACGTCGCCGATGTCGGAGTCACCTAGTGCAG | 12100 fluorescence intensity (a.u.)

Row | Sequence | binding signal
22 | TTATGGCACCACGTGGACCAATCAAATGCTGGCAGAACCGCGGAGTCACCTAGTGCAG | 7040 fluorescence intensity (a.u.)
23 | GTACAGCGGCGTCAGCGAGTACGCACGCACGCGCATGCTGCGGAGTCACCTAGTGCAG | 4530 fluorescence intensity (a.u.)
24 | GGCGAGTGAGTGGAGATGCACGTGTTGCTGCTTGCATGCTCGGAGTCACCTAGTGCAG | 4110 fluorescence intensity (a.u.)
25 | TCGTCTTGATATGCAAGCATACGTGGCATCCTAACCGGTGCGGAGTCACCTAGTGCAG | 20600 fluorescence intensity (a.u.)
26 | TAGTACTGTTATGGTACCAGCAATCTACCACGTCGATGTCCGGAGTCACCTAGTGCAG | 6230 fluorescence intensity (a.u.)
27 | GCTTTCTTCGTGGATGCGGACCTGACGCAACCTTTTGTCCCGGAGTCACCTAGTGCAG | 3420 fluorescence intensity (a.u.)
28 | CCTTTGAAGCAATCCTACAATCTAAATGACTCATATAGGACGGAGTCACCTAGTGCAG | 4800 fluorescence intensity (a.u.)
29 | GCCGCGCGCCGCCGAGGCCGTCCTCCGCACCCACGACCTCCGGAGTCACCTAGTGCAG | 3140 fluorescence intensity (a.u.)
30 | AGAAATGCGAGAATGAGTATGACGTATGCAGGGCAATGACCGGAGTCACCTAGTGCAG | 6170 fluorescence intensity (a.u.)
31 | CTTTTAGGCTGACGCGGAGCCCATCCGGCCCAAATCAAGCCGGAGTCACCTAGTGCAG | 5850 fluorescence intensity (a.u.)
32 | ACATGTGGGCTTGAGTCTCCGACTCATAACAGATGATCGTCGGAGTCACCTAGTGCAG | 27800 fluorescence intensity (a.u.)
33 | CTTGATCTGCATTCTTCATCTTCTGTCTCAACAAAATAATCGGAGTCACCTAGTGCAG | 3420 fluorescence intensity (a.u.)
34 | CGACAGCGTTACACGTCGTGTCCTCCTTGGGAGCGTCGCTCGGAGTCACCTAGTGCAG | 5180 fluorescence intensity (a.u.)
35 | CGTCAGTTGTCACGTCACCGGCGGCCGCACGCATCGCACCCGGAGTCACCTAGTGCAG | 7980 fluorescence intensity (a.u.)
36 | CGCTCGCCTTCTAGGCCCAAGCCCAATATCCCTCAAATATCGGAGTCACCTAGTGCAG | 3420 fluorescence intensity (a.u.)
37 | TTCTCAACCCAATGACTAGGATGGTGTCCATAACATTAAACGGAGTCACCTAGTGCAG | 3740 fluorescence intensity (a.u.)
38 | ATCCTCATCCCACCAAAATTCCCATGTCTTCTAACCAAACCGGAGTCACCTAGTGCAG | 17800 fluorescence intensity (a.u.)
39 | AAACCAATACTGACACCTCTGCCTCGCAACGCGGCGCGCGCGGAGTCACCTAGTGCAG | 3850 fluorescence intensity (a.u.)
40 | CCGCCATCTCCACCTCCGCCGCCGCGTCCAACTCCACCTTCGGAGTCACCTAGTGCAG | 3390 fluorescence intensity (a.u.)
41 | TCGACAAAACACAATAAACAATCAACCACGTACCAAGTTGCGGAGTCACCTAGTGCAG | 3210 fluorescence intensity (a.u.)
42 | TATACTCCCTGACGTCAAACTAACACATACATAATCTTCTCGGAGTCACCTAGTGCAG | 6240 fluorescence intensity (a.u.)

Individual results from the results shown:
Value of CGTCAGTTGTCACGTCACCGGCGGCCGCACGCATCGCACCCGGAGTCACCTAGTGCAG under binding signal: 7980 fluorescence intensity (a.u.)
Value of TTCTCAACCCAATGACTAGGATGGTGTCCATAACATTAAACGGAGTCACCTAGTGCAG under binding signal: 3740 fluorescence intensity (a.u.)
Value of TCGACAAAACACAATAAACAATCAACCACGTACCAAGTTGCGGAGTCACCTAGTGCAG under binding signal: 3210 fluorescence intensity (a.u.)
